The values below come from PMC10163288.

The chains are these.
B1: il2ra_site1_3nfp_sap_11_mot_16934e337390fad51c35c10e6cd388ee_0001_1_000000054_0001_52_65_H_._HHH_b1_03734_0001_0000100006_0000001_1_0001 (protein)
chain: DDARAVSKVVAEAAKQMGIPSVEVTVENGELEVTVEGNDEAAKAIKWAAENAAEWFRITVEVRHE
B2: il2ra_site1_3nfp_sap_21_mot_HHH_b1_02247_af2_000000083_0001_41_56_H_._HHH_b1_01686_af2_0001_0000600021_0000001_0_0001 (protein)
chain: SSSSSEVEERVERLLEEAKEVLEEGDWERAHEIVQEAMHVASRNANDELDRLILEWVRREASSSS
B3: il2ra_site1_1z92_sap_14_mot_HHH_b2_00990_000000082_0001_45_58_H_._HHH_b2_07870_af2_0001_0000600070_0000001_0_0001_af2pred_0001_af2pred_swapped (protein)
chain: SSSSSSERFARQVVKILVKLANLSEEQEEELEKLAEELVKRGYSWREISKILNELAARLDSSSSS
B4: il2ra_site2_2erj_normal_mot_HHH_b1_07204_000000037_0001_41_57_H_._HHH_b2_03327_af2_0001_0000400027_0000001_0 (protein)
chain: SSSDREERAEEVVERLVRELGLNELAERFLERNAEFAIEAGASPEEIERSLEESAKIIAEAQSSS
B5: il2ra_site2_3nfp_normal_mot_HHH_b1_04960_000000149_0001_23_39_H_._HHH_b2_01567_af2_0001_0001300067_0000001_1 (protein)
chain: SSSSDEEAEELLEEAKELLKDERLAEEAEEALLRAAALAAQEGDFELFAEIVELMEEVARSSSSS
B6: il2ra_site1_3nfp_sap_11_mot_HHH_b1_07644_af2_000000110_0001_40_57_H_._HHH_b2_03307_0001_0000500025_0000001_0_0001_af2pred_0001_af2pred_1 (protein)
chain: SEEEREEVEELLRKVDPEAVEIFRRVIELIERLGDPALKFALESVLRAAKRDPETAARLLRRLMK
B7: il2ra_site2_3nfp_normal_mot_b35798fd3694cae0124b3072f1761b69_0001_1_000000048_0001_36_50_H_._ea668602291a2ecc16ad0111e2d152a8_0001_0001_0000100004_0000001_0 (protein)
chain: SIEEILEELIEKVANVPPERAKELLEEFERAAGTPEAVLRILLRFAEFLGDPEVARALERLLKET
B8: il2ra_site2_3nfp_normal_mot_HHH_b1_00660_af2_000000090_0001_40_57_H_._HHH_b2_03957_0001_0000100002_0000001_0_af2pred_0001_af2pred (protein)
chain: SSSSDVEEQVRELLKEAEELLERGNPEEAKEVLEEAALLAIEARDFELFALINELIEKVLGSSSS
B9: il2ra_site2_3nfp_sap_20_mot_HHH_b2_08245_000000023_0001_41_55_H_._HHH_b2_07710_0001_0000200007_0000001_0_0001 (protein)
chain: DVYEELEEKAEEAARKQDPELAAEVIDLASENPEAWEKLRKVLRELNTILELYRLALEWYRKAQS
B10: il2ra_site2_3nfp_sap_27_mot_HHH_b1_06797_000000164_0001_24_40_H_._HHH_b2_04633_0001_0000200035_0000001_0_0001 (protein)
chain: SSSSDEEREELYELLEELFRLINEGDDEKFRKLEKRLEELAKELRSPHVEKAVERAEEEFHSSSS
B11: il2ra_site1_1z92_normal_mot_HHH_b1_02043_af2_000000156_0001_1_14_H_._HHH_b1_03493_af2_0001_0000100003_0000001_0_af2pred_0001_af2pred (protein)
chain: SSSSSDEELLKEAEELLEEAKHADAQELFELAELLNELAKKAEDDEVFEEIAKIFRKLVSSSSSS
B12: il2ra_site1_3nfp_sap_7_mot_HHH_b2_00857_af2_000000076_0001_1_16_H_._HHH_b1_07967_0001_0000100005_0000001_0_0001_1 (protein)
chain: SSSSSDAVEIARRVSELLKEAAKVSEEEVERLLEEAKELAKEANDPQAERLIEDAERIIRSSSSS
B13: il2ra_site1_1z92_sap_14_mot_HHH_b2_03734_000000087_0001_38_51_H_._HHH_b1_07590_0001_0000100003_0000001_0_0001 (protein)
chain: PPVEEALEIARELGDPDLVEVLEWLLRALERDPNDKAVEYLVENLYRTLKRDPEAASKQAKKFLR
B14: il2ra_site2_3nfp_sap_25_mot_HHH_b1_04762_000000120_0001_42_54_H_._e25eb812683db3a1eee71c331fe53a14_0001_af2_0001_0000100004_0000001_0_0001_af2pred_0001_af2pred (protein)
chain: SRELSQRILELLERGDPVAYALATLLAAVLHEGDPRLKELLEQALEALERGNPEEAKEIVRRALS
B15: il2ra_site1_2b5i_normal_mot_f5ff40796168375b462bec8614a1db4a_0001_1_000000138_0001_53_65_H_._HHH_b1_00383_af2_0001_0000200009_0000001_0_af2pred_dldesign_0_af2pr … (protein)
chain: SSSSSDLPELAQELFDEAKRLLEEGKKEEAYKLLRLARRVARKGGDEELIAEIEKLLKELESSSS
B16: il2ra_site2_2erj_normal_mot_HHH_b2_00732_af2_000000006_0001_23_40_H_._HHH_b2_05430_0001_0000500016_0000001_0 (protein)
chain: SSSSYEELREVMELLAEALRAAWEGDPELVRELLEEAKRLAEEANNEDLEEVIEEAERYLRSSSS
B17: il2ra_site1_2b5i_normal_mot_22370d59370c406a0c205a431f537cfa_0001_af2_000000027_0001_1_31_H_._HHH_b2_07439_af2_0001_0000100009_0000001_0 (protein)
chain: SSSDNEEIREITKIVWRLRFEFNLSKEQAQELARLAAELLDRGISVEEIEKILEELAEELGSSSS
B18: il2ra_site1_1z92_sap_9_mot_HHH_b2_02761_000000226_0001_1_18_H_._d3190f16c0c9ad810059a204378775c7_0001_af2_0001_0000100002_0000001_0_0001 (protein)
chain: DVERFIEFLERKGRVSPEKIAKSLAAFVRIAERKSPEAAETFEEDLEELSKTDPIAQLALELLRR
B19: il2ra_site1_3nfp_sap_6_mot_HHH_b1_07880_af2_000000062_0001_1_16_H_._HHH_b2_02959_0001_0000500040_0000001_0_0001 (protein)
chain: SSSSSDIEERIRELLEEAKEISDPREALRLFREALRLAARAQDPELERLVFEAVRAMAGSSSSSS
B20: il2ra_site2_3nfp_normal_mot_HHH_b2_08209_000000146_0001_1_18_H_._HHH_b1_00160_0001_0000200018_0000001_0 (protein)
chain: SSSSSTEEERERVEELLEEAKEITDPEERKELLAEATQIAYEANDFELFALVADVVFELLSSSSS
B21: il2ra_site1_3nfp_normal_mot_HHH_b1_05523_000000054_0001_1_19_H_._HHH_b1_08043_af2_0001_0000300027_0000001_0_af2pred_0001_af2pred (protein)
chain: SSSSNLRERIEELIRQAHELFKRGDEEEARKLLEEALELAEELGSRLARRFIEVALKIAHSSSSS
B22: il2ra_site1_1z92_normal_mot_01209686ea234b34325f918445e6eade_0001_af2_000000154_0001_18_33_H_._76fe7993c3ad9ffb2b2ee76f24d0ea53_0001_0001_0000100010_0000001_0_a … (protein)
chain: SLEEKLEEIKKLGVPPELVELFRKLFRAAEESGIPPEDVLRVLEDAAERDNDPELKEVIELVAET
B23: il2ra_site1_3nfp_normal_mot_HHH_b1_05523_000000027_0001_1_19_H_._HHH_b2_04834_af2_0001_0000200023_0000001_0 (protein)
chain: SSSSNEAEELFRLLRLAYELLKRGDEEEAEKVLEEAIKLAEERNNESAKRSLEKALEQIENSSSS
B24: il2ra_site1_2b5i_normal_mot_HHH_b1_06833_000000207_0001_1_19_H_._7f70b108f67073d46d85893f1d3c3336_0001_af2_0001_0000100003_0000001_0_af2pred_dldesign_0_af2pred (protein)
chain: SLEDIAEAAEEADDKDLLDLAVRAYYLAQKNPSLKERLLELVTRLARGEIAPEEAKRRLSELALE

Some of the results follow.

In this assay the target is il2ra, P01589. Briefly: yeast display titration.
Consider B1, for which the “apparent Kd” value was “inactive: no binding seen”.
On to B2, for which the “apparent Kd” value is “inactive: no binding seen”.
The same measure for B3: “inactive: no binding seen”; for B4: “inactive: no binding seen”; for B5: “inactive: no binding seen”.
Consider B6, for which the “apparent Kd” value was “inactive: no binding seen”.
For B7 the value was “inactive: no binding seen”; for B8, “inactive: no binding seen”; for B9, “inactive: no binding seen”.
As for B10, the “apparent Kd” value was “inactive: no binding seen”.
Take B11: the “apparent Kd” value is “inactive: no binding seen”.
The same measure for B12: “inactive: no binding seen”; for B13: “inactive: no binding seen”.
The same measure for B14: “inactive: no binding seen”; for B15: “inactive: no binding seen”; for B16: “inactive: no binding seen”.
For B17 the value was “inactive: no binding seen”.
With B18, the “apparent Kd” value is “inactive: no binding seen”.
B19: the “apparent Kd” value is “inactive: no binding seen”.
For B20 the value was “inactive: no binding seen”; for B21, “inactive: no binding seen”; for B22, “inactive: no binding seen”.
For B23 the value was “inactive: no binding seen”; for B24, “inactive: no binding seen”.
